# The supplement of paper PMC10849652
# By UniProt entry, the sequences of proteins in these tests, tags left out. Where a name states a change or a piece, a line headed by the entry shows the natural chain unless it says otherwise.
# UniProt Q9NVV4: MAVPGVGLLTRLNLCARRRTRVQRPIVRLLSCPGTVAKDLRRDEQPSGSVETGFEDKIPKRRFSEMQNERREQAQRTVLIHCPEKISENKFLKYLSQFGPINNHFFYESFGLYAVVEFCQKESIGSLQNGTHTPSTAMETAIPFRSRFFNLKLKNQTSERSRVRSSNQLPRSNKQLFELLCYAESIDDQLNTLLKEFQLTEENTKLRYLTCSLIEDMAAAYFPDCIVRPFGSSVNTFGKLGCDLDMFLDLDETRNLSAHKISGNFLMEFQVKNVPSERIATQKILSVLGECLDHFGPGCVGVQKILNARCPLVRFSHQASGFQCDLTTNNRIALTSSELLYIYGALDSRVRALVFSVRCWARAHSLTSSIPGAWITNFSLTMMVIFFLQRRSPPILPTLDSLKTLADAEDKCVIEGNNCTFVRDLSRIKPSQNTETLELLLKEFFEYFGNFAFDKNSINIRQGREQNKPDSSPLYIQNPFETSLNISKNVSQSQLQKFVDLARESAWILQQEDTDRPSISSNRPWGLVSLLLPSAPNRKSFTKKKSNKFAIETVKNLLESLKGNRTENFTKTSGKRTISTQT
# UniProt Q96HJ5: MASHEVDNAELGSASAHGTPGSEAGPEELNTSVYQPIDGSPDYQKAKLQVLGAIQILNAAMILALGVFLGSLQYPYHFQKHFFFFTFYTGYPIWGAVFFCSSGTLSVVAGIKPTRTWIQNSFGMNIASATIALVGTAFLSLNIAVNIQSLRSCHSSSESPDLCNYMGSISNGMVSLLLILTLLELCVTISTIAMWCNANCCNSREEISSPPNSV
# UniProt O75570: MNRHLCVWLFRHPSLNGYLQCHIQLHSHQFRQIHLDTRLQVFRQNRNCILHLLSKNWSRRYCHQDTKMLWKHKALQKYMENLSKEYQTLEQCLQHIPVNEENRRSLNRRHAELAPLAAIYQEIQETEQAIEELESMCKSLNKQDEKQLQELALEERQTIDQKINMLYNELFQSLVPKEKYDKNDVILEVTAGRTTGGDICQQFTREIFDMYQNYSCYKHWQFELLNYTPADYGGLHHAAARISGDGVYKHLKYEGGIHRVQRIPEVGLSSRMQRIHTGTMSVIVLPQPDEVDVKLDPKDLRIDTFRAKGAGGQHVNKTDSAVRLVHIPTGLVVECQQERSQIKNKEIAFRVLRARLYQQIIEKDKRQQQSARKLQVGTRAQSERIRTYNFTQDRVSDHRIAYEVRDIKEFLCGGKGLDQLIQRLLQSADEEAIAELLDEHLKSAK
# UniProt Q96EF0: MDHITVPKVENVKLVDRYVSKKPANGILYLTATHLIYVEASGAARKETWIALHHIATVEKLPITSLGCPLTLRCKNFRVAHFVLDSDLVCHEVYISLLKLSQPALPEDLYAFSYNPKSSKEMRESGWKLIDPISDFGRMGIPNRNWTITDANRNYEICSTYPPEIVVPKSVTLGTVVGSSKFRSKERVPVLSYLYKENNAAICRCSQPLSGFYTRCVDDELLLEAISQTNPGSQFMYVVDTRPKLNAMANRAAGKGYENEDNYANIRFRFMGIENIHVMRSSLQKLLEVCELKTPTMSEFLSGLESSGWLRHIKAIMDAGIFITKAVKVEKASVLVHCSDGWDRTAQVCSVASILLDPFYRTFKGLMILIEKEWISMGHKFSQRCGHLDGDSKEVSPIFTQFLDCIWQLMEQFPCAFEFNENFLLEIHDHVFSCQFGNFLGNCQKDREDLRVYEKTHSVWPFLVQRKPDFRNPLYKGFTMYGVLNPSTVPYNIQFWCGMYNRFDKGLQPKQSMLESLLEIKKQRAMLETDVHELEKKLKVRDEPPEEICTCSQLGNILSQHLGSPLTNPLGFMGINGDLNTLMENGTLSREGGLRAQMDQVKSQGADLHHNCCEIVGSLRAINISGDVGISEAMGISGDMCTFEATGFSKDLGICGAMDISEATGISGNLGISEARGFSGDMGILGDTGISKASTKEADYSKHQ
# UniProt Q14872: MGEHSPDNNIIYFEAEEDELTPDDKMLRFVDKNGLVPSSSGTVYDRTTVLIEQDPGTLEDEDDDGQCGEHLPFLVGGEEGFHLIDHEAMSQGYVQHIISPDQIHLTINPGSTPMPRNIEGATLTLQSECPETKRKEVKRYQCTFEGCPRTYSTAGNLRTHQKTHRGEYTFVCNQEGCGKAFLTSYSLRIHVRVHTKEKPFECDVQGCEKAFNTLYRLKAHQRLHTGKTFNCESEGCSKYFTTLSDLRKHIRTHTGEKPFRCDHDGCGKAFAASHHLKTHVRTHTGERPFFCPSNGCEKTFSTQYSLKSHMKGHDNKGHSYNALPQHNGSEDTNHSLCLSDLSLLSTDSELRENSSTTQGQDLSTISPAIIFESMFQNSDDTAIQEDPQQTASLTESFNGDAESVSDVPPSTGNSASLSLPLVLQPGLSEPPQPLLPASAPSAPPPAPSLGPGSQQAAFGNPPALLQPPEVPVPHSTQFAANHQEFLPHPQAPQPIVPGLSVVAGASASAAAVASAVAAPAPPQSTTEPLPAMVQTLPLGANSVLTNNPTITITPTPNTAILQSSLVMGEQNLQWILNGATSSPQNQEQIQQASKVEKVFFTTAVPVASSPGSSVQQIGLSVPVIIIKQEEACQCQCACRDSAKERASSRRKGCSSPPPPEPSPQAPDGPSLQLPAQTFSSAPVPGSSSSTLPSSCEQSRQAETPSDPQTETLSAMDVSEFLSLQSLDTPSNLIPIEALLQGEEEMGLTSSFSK
# UniProt Q9Y2Z2: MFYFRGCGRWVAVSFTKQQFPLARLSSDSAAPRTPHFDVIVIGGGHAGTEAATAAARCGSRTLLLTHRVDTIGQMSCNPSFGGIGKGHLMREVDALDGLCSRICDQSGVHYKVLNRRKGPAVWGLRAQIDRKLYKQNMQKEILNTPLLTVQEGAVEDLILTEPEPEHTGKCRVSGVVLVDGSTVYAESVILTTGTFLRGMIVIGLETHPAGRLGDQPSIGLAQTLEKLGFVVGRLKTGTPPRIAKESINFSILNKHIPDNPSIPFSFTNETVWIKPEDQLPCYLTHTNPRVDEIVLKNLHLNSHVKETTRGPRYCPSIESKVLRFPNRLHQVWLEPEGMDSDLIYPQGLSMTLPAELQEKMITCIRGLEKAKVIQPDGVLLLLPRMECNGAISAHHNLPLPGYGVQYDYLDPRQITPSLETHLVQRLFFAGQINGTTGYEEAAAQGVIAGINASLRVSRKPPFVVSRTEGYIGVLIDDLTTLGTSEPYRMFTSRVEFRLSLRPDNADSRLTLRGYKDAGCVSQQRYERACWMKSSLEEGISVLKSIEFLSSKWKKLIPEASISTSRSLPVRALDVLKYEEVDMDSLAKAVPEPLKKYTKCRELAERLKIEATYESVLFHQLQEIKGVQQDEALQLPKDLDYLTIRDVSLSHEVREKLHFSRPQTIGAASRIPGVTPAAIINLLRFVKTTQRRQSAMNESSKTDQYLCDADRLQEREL
# UniProt Q9HD23: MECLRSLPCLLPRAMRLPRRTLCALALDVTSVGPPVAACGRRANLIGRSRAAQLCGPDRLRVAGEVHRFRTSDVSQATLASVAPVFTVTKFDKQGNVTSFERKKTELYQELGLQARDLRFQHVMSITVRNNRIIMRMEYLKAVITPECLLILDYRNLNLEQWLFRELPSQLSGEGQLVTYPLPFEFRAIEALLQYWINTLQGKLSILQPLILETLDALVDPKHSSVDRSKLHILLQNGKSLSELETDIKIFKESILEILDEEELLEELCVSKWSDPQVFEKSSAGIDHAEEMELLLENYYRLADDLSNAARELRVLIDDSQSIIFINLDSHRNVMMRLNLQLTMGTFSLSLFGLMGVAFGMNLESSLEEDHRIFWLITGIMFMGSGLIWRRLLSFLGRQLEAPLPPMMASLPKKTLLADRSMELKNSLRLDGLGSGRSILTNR
# UniProt Q969V6: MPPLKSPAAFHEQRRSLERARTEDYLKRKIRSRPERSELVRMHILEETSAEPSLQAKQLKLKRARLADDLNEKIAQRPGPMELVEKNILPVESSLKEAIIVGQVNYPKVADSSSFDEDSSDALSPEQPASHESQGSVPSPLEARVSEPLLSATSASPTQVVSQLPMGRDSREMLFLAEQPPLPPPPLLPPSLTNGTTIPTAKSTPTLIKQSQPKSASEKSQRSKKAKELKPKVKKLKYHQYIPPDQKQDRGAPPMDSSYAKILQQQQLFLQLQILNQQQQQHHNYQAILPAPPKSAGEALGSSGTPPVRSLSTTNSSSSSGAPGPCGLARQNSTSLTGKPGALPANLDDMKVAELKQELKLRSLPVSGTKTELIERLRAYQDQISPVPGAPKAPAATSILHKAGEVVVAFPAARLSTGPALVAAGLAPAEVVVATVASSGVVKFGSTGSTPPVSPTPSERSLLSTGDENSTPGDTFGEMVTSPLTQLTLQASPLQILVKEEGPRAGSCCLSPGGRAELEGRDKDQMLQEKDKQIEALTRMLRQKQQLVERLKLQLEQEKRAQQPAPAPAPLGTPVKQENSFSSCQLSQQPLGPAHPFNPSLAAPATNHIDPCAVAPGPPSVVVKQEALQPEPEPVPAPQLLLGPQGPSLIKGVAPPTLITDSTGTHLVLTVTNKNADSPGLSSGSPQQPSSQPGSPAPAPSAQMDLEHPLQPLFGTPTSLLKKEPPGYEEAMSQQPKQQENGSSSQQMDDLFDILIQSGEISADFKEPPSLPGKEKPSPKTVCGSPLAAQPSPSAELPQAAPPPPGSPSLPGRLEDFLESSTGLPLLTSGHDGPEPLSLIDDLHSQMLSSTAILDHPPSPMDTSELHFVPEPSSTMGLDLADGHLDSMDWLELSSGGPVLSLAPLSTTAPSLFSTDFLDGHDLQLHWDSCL
# UniProt Q9BT17: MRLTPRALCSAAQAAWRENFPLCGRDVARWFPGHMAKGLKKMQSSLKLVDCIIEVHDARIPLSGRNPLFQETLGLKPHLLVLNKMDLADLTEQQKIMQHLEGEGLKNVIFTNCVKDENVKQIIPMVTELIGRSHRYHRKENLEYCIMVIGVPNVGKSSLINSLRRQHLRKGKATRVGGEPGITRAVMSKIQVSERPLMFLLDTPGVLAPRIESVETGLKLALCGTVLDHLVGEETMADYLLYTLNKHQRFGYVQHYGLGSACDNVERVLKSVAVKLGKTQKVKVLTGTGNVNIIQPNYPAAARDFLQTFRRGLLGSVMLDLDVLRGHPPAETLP
# UniProt P03923, whole entry, looked up: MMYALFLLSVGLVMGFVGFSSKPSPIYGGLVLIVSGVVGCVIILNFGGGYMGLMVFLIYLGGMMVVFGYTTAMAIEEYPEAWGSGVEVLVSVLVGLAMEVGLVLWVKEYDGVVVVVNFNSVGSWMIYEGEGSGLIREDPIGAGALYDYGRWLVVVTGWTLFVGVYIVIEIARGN
# UniProt Q6P1R3: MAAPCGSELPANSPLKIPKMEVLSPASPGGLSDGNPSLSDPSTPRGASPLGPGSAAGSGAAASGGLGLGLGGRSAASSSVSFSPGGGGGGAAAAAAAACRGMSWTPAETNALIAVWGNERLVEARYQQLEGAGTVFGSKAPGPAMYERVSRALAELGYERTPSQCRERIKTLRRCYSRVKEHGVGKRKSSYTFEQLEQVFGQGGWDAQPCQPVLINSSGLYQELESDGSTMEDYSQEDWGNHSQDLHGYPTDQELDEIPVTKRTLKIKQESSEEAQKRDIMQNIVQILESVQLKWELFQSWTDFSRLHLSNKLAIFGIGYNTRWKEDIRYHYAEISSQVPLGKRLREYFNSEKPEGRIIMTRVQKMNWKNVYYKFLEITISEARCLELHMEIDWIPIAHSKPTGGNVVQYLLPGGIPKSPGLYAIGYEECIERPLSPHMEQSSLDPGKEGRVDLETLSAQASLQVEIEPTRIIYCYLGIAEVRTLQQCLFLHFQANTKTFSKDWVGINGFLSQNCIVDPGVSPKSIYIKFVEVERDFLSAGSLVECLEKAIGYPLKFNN
# UniProt Q9H2K0, whole entry, looked up: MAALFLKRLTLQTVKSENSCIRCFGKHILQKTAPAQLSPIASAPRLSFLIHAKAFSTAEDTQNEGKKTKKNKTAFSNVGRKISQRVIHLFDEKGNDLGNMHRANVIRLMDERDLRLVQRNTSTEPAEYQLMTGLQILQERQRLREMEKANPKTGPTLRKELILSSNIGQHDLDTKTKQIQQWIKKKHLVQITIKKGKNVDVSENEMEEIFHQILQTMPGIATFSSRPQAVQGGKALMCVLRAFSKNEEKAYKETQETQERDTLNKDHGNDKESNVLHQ
# UniProt Q96DP5: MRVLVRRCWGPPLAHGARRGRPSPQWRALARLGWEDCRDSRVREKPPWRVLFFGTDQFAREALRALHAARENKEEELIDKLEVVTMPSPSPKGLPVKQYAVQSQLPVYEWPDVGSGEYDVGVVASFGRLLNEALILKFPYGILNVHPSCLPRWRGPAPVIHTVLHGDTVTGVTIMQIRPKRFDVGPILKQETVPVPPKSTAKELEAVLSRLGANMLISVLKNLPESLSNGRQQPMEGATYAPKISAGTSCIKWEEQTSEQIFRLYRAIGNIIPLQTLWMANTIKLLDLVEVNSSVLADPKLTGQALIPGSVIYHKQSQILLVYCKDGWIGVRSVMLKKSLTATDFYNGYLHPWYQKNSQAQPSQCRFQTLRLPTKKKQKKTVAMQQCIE
# UniProt Q93083: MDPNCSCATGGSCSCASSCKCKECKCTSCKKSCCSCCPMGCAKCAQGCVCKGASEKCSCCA
# Some of the results follow.
# Assays:
# Experiment in all cases: log2 fold change, soluble protein after heating vs DMSO (PISA); higher = thermal stabilisation; K562 lysate, 10 uM; active = over 0.2 and 3.5 SD of the protein, either way, in both replicates (recomputed)
# [1] = compound: CCCS(=O)(=O)Nc1ccc(F)c(C(=O)c2c[nH]c3ncc(-c4ccc(Cl)cc4)cc23)c1F [vemurafenib]
# In short: (§1)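 Values give the log-two fold change in thermal stability against solvent controls, from duplicates. Crude K562 extract at 1 mg/mL protein, made by dounce homogenisation in PBS pH 7.4 with 1 mM MgCl2, was treated with 10 μM compound for 30 min. After 3 min heating across 48°C-58°C, aliquots were pooled, adjusted to 0.5% NP-40 at 4°C and centrifuged at 21,000xg for 90 min. The supernatant was measured by TMTpro 16plex LC-MS/MS with channel sums equalised.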
# [2] = compound: CCCS(=O)(=O)Nc1ccc(F)c(C(=O)c2c[nH]c3ncc(Cl)cc23)c1F
# In short: as §1
# [3] = compound: CC[C@@H]1C(=O)N(C)c2cnc(Nc3ccc(C(=O)NC4CCN(C)CC4)cc3OC)nc2N1C1CCCC1
# In short: as §1
# [4] = compound: CC[C@@H]1C(=O)N(C)c2cnc(Nc3ccc(C(=O)N[C@H]4CC[C@H](N5CCN(CC6CC6)CC5)CC4)cc3OC)nc2N1C(C)C [volasertib]
# In short: as §1
# [5] = compound: CCn1c(C(=O)N(C2CC2)C2CC2)cc2c3c(ncn3C)c(Nc3cc(C)n(C)n3)nc21
# In short: as §1
# [6] = compound: CCn1cc(-c2ccnc3[nH]c(-c4cccc(CN(C)C)c4)cc23)c(-c2ccc(NC(=O)N(C)C)cc2)n1
# In short: as §1
# [7] = compound: CN1CCC(CNc2ccc3ncc(-c4cccc(OC(F)(F)F)c4)n3n2)CC1
# In short: as §1
# [8] = compound: CN1CCN(CCOc2cc(OC3CCOCC3)c3c(Nc4c(Cl)ccc5c4OCO5)ncnc3c2)CC1 [saracatinib]
# In short: as §1
# [9] = compound: CN1CCN(c2nc(C3=C(c4c[nH]c5ccccc45)C(=O)NC3=O)c3ccccc3n2)CC1 [sotrastaurin]
# In short: as §1
# [10] = compound: CN1CC[C@H](c2c(O)cc(O)c3c(=O)cc(-c4ccccc4Cl)oc23)[C@H](O)C1 [alvocidib]
# In short: as §1
# [11] = compound: CN1CCc2c(c3ccccc3n2Cc2ccc(C(=O)NO)cc2)C1 [Tubastatin A]
# In short: as §1
# [12] = compound: CNC(=O)C1=CC=CC=C1NC2=NC(=NC=C2Cl)NC3=C(C=C(C=C3)N4CCOCC4)OC
# In short: as §1
# [13] = compound: CNC(=O)c1ccc(Nc2ncc(C(F)(F)F)c(NCc3nccnc3N(C)S(C)(=O)=O)n2)cc1 [defactinib]
# In short: as §1
# [14] = compound: CNc1nc(-c2ccc3c(N)n[nH]c3c2)cc(N2C[C@@H](C(=O)NC3CCCCC3)CC[C@H]2C)n1
# In short: as §1
# [15] = compound: COC(=O)N[C@@H](C)CNc1nccc(-c2cn(C(C)C)nc2-c2cc(Cl)cc(NS(C)(=O)=O)c2F)n1 [encorafenib]
# In short: as §1
# [16] = compound: COC(=O)[C@H](CCSC)NC(=O)C1=C(C=C(C=C1)NC[C@H](CS)N)C2=CC=CC=C2
# In short: as §1
# [17] = compound: COc1cc(Nc2ncc3c(n2)-c2ccc(Cl)cc2C(c2c(F)cccc2OC)=NC3)ccc1C(=O)O [alisertib]
# In short: as §1
# [18] = compound: COc1cc2nc(-c3cc(F)ccc3O)nc(N[C@@H]3CNC[C@H]3C(C)(C)O)c2cc1OC
# In short: as §1
# [19] = compound: COc1cc2ncnc(Nc3ccc(F)c(Cl)c3)c2cc1OCCCN1CCOCC1 [gefitinib]
# In short: as §1
# [20] = compound: CCN(CCCOc1ccc2c(Nc3cc(CC(=O)Nc4cccc(F)c4)[nH]n3)ncnc2c1)CCOP(=O)(O)O [barasertib]
# In short: as §1
Target,log2 fold change [1],log2 fold change [2],log2 fold change [3],log2 fold change [4],log2 fold change [5],log2 fold change [6],log2 fold change [7],log2 fold change [8],log2 fold change [9],log2 fold change [10],log2 fold change [11],log2 fold change [12],log2 fold change [13],log2 fold change [14],log2 fold change [15],log2 fold change [16],log2 fold change [17],log2 fold change [18],log2 fold change [19],log2 fold change [20]
MTPAP (UniProt Q9NVV4),inactive: 0.048,inactive: 0.072,inactive: -0.05,inactive: -0.085,inactive: 0.104,inactive: 0.12,inactive: -0.107,inactive: -0.03,inactive: 0.076,inactive: -0.009,inactive: -0.053,inactive: -0.027,inactive: 0.059,inactive: 0.129,inactive: 0.028,inactive: -0.118,inactive: -0.035,inactive: -0.015,inactive: 0.024,
MT-ND3 (UniProt P03897),,inactive: -0.102,inactive: -0.187,inactive: -0.172,inactive: -0.019,inactive: -0.087,inactive: -0.16,,inactive: 0.095,inactive: 0.292,inactive: 0.126,inactive: -0.076,,,inactive: 0.055,inactive: -0.026,inactive: -0.06,inactive: -0.265,inactive: 0.179,inactive: 0.043
MT-CO3 (UniProt P00414),inactive: -0.011,,,,,inactive: -0.295,inactive: 0.26,inactive: 0.063,,inactive: -0.078,,,inactive: -0.304,inactive: 0.148,,,,,,
MTHFD2L (UniProt Q9H903),,,,,,inactive: -0.133,inactive: 0.005,,inactive: 0.038,inactive: -0.037,,inactive: 0.045,,,,,,,,inactive: 0.192
MS4A3 (UniProt Q96HJ5),inactive: -0.06,inactive: 0.089,inactive: 0.036,inactive: 0.054,,,,,inactive: -0.031,,,,inactive: -0.07,,inactive: 0.017,inactive: -0.12,,inactive: 0.183,,
MSH5 isoform 3 (UniProt O43196),,inactive: -0.109,inactive: -0.148,inactive: -0.067,inactive: 0.812,,,inactive: -0.063,inactive: 0.09,,inactive: -0.057,,,inactive: 0.494,inactive: 0.13,inactive: 0.106,,inactive: 0.061,,
MTRF1 isoform 2 (UniProt O75570),,,,,,inactive: -0.373,inactive: 0.033,,inactive: -0.09,inactive: -0.06,,,,,,,,,,
MRPL24 (UniProt Q96A35),inactive: 0.018,inactive: 0.039,inactive: 0.011,inactive: -0.042,inactive: 0.037,inactive: 0.061,inactive: -0.097,inactive: 0.019,inactive: -0.021,inactive: 0.033,inactive: 0.01,inactive: 0.01,inactive: 0.025,inactive: 0.075,inactive: 0.018,inactive: 0.007,inactive: 0.014,inactive: 0.014,inactive: -0.052,
MTMR8 (UniProt Q96EF0),,,,,,,,inactive: -0.143,,,,inactive: 0.064,,inactive: -0.114,,,,,,inactive: 0.087
MTF1 (UniProt Q14872),,,,,,inactive: 0.238,inactive: -0.115,,,inactive: 0.106,,,,,,,,,,
MTMR4 (UniProt Q9NYA4),inactive: 0.19,inactive: -0.013,,inactive: 0.013,inactive: 0.045,inactive: -0.04,inactive: -0.01,inactive: -0.121,inactive: -0.014,inactive: 0.033,inactive: -0.108,inactive: 0.013,inactive: 0.034,inactive: -0.014,,,inactive: -0.074,inactive: -0.103,inactive: -0.093,
MUC5AC (UniProt P98088),,,,,inactive: 0,,,,,,inactive: -0.03,,,,,,inactive: -0.233,,inactive: 0.013,
MTO1 isoform 4 (UniProt Q9Y2Z2),inactive: 0.028,,inactive: -0.014,,inactive: 0.063,inactive: 0.105,inactive: 0.031,inactive: 0.011,inactive: 0.031,inactive: -0.025,inactive: -0.086,inactive: -0.006,inactive: 0.005,inactive: 0.059,inactive: -0.014,inactive: 0.098,inactive: 0.195,,inactive: -0.048,inactive: -0.148
MRS2 isoform 2 (UniProt Q9HD23),,,,,,,,,inactive: -0.051,,,,,,,,inactive: 0.105,,inactive: 0.057,
MRTFA (UniProt Q969V6),inactive: -0.05,,inactive: 0.086,,inactive: 0.157,inactive: 0.016,inactive: 0,inactive: -0.102,inactive: -0.022,inactive: 0.041,inactive: -0.017,inactive: 0.034,inactive: 0.226,inactive: -0.045,inactive: 0.075,inactive: -0.088,inactive: -0.029,,inactive: -0.057,inactive: 0.112
MTG1 (UniProt Q9BT17),,,,,,inactive: 0.073,inactive: -0.036,,,inactive: -0.082,,,,,,,inactive: 0.09,,inactive: -0.294,
MRPS15 (UniProt P82914),,inactive: 0.036,inactive: -0.039,inactive: -0.016,inactive: -0.048,inactive: -0.042,inactive: 0.007,inactive: 0.024,inactive: -0.016,inactive: -0.043,inactive: -0.018,inactive: 0.002,,inactive: 0.231,inactive: -0.047,inactive: 0.073,inactive: 0.026,inactive: 0.062,inactive: -0.031,inactive: 0.104
MT-ND6 (UniProt P03923),,inactive: 0.151,,inactive: 0.037,inactive: -0.153,inactive: -0.499,inactive: -0.062,,inactive: 0.003,inactive: -0.048,inactive: 0.136,inactive: -0.086,,,,,,inactive: -0.03,,
MRPS2 (UniProt Q9Y399),inactive: -0.014,inactive: 0.002,inactive: -0.158,inactive: -0.013,inactive: 0.057,inactive: -0.001,inactive: -0.071,inactive: 0.003,inactive: 0.05,inactive: 0.057,inactive: -0.093,inactive: -0.006,inactive: 0.032,inactive: -0.165,inactive: -0.012,inactive: 0.01,inactive: 0.01,inactive: -0.019,inactive: -0.048,
MTTP (UniProt P55157),,,,,,,,,,,,,,,,,,,,inactive: 0.092
MSANTD2 (UniProt Q6P1R3),inactive: 0.183,,inactive: -0.063,,,inactive: -0.138,inactive: 0.057,inactive: 0.011,inactive: 0.075,inactive: 0.029,,inactive: 0.031,inactive: -0.124,inactive: 0.239,inactive: 0.15,inactive: -0.072,,,,
MTERF2 (UniProt Q49AM1),,,inactive: -0.03,,inactive: 0.112,,,inactive: 0.068,inactive: 0.094,,inactive: 0.145,inactive: -0.043,,inactive: 0.03,inactive: -0.049,inactive: 0.282,,,,
MSL2 (UniProt Q9HCI7),inactive: 0.006,,inactive: 0.166,,inactive: -0.199,,,,inactive: 0.033,,inactive: 0.002,inactive: 0.033,inactive: 0.07,,inactive: 0.057,inactive: 0.056,inactive: -0.034,,inactive: 0.002,
MTIF3 (UniProt Q9H2K0),inactive: 0.073,inactive: 0.012,,inactive: 0.082,inactive: -0.017,inactive: -0.013,inactive: 0.009,inactive: 0.011,,inactive: 0.01,inactive: 0.059,inactive: -0.063,inactive: -0.008,inactive: 0.072,,,inactive: 0,inactive: -0.037,inactive: 0.086,inactive: 0.055
MTFMT (UniProt Q96DP5),,inactive: 0.104,,inactive: -0.133,,inactive: -0.812,inactive: -0.085,inactive: -0.17,inactive: -0.129,inactive: -0.255,,inactive: 0.043,,inactive: 0.052,,,inactive: -0.069,inactive: 0.222,inactive: -0.211,
MTSS1 isoform 5 (UniProt O43312),,inactive: -0.375,,inactive: -0.166,inactive: -0.557,,,inactive: -0.21,inactive: 0.04,,inactive: 0.627,,,inactive: -0.736,,,inactive: -0.622,inactive: -0.233,inactive: 0.177,
MT1L (UniProt Q93083),,,,,,inactive: 0.12,inactive: -0.012,,inactive: 0.054,inactive: 0.028,,,,,,,,,,inactive: 0.132
MTHFR (UniProt F8W9T8),,,,,,,,,,,,,,,,,inactive: -0.136,,inactive: 0.087,inactive: 0.218
MRPL34 (UniProt Q9BQ48),,inactive: -0.018,inactive: 0.129,inactive: -0.283,,inactive: 0.035,inactive: -0.014,inactive: -0.348,inactive: 0.006,inactive: 0.022,,,,inactive: 0.071,inactive: 0.167,inactive: 0.259,,inactive: 0.017,,inactive: 0.016
MRPL30 isoform 2 (UniProt Q8TCC3),,inactive: 0.002,inactive: -0.068,inactive: -0.013,inactive: -0.027,active: 0.563,active: -0.434,inactive: 0.01,inactive: 0.016,active: 0.419,inactive: 0.034,inactive: -0.003,,inactive: -0.002,inactive: -0.049,inactive: -0.034,inactive: -0.033,inactive: -0.003,inactive: -0.013,inactive: 0.002

# Reprinted from the entries so far for reference:
Target,log2 fold change [1],log2 fold change [2],log2 fold change [3],log2 fold change [4],log2 fold change [5],log2 fold change [6],log2 fold change [7],log2 fold change [8],log2 fold change [9],log2 fold change [10],log2 fold change [11],log2 fold change [12],log2 fold change [13],log2 fold change [14],log2 fold change [15],log2 fold change [16],log2 fold change [17],log2 fold change [18],log2 fold change [19],log2 fold change [20]
MS4A3 (UniProt Q96HJ5),inactive: -0.06,inactive: 0.089,inactive: 0.036,inactive: 0.054,,,,,inactive: -0.031,,,,inactive: -0.07,,inactive: 0.017,inactive: -0.12,,inactive: 0.183,,
MSH5 isoform 3 (UniProt O43196),,inactive: -0.109,inactive: -0.148,inactive: -0.067,inactive: 0.812,,,inactive: -0.063,inactive: 0.09,,inactive: -0.057,,,inactive: 0.494,inactive: 0.13,inactive: 0.106,,inactive: 0.061,,
